Results as given in paper doi:10.1101/2024.07.18.604029.
Results are given in words; binding and its absence hold for the method and conditions named. For some of these results: Binding seen in cells or lysates may run through a third protein. Some binding calls cover weakened binding; strength is not graded here. Tags and fused reporters may be left off the sequences shown.

Chains of the proteins cited; added tags and fusions are not shown.
UniProt Q9SK03: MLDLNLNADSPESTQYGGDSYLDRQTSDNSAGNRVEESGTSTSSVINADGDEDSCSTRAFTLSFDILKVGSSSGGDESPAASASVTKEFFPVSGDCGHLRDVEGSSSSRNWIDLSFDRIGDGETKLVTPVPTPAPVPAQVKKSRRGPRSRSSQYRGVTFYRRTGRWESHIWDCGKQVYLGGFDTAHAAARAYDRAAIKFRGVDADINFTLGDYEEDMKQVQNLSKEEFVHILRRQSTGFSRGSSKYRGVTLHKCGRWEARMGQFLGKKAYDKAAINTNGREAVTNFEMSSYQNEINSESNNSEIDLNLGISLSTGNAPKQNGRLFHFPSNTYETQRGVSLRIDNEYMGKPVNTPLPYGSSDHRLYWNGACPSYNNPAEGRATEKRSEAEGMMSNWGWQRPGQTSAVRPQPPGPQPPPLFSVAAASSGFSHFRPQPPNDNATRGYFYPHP

Assays:
[1] = target: T1, EEN fused to the N-terminal fragment of CFP (pSCYNE(R)) (Arabidopsis thaliana) (UniProt Q8RWS0); assay: split reporter
T1 sequence: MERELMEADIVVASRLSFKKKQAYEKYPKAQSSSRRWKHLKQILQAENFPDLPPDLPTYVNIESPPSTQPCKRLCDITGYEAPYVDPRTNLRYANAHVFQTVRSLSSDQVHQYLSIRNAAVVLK

[2] = target: T2, EIN6 ENHANCER (EEN), bait fusion in pGBKT7 (Arabidopsis thaliana) (UniProt Q8RWS0); assay: two-hybrid
T2 sequence: T1 sequence

[3] = target: T3, … PROTEIN 5 (ARP5), bait fusion in pGBKT7 (Arabidopsis thaliana) (UniProt Q940Z2); assay: two-hybrid
T3 sequence: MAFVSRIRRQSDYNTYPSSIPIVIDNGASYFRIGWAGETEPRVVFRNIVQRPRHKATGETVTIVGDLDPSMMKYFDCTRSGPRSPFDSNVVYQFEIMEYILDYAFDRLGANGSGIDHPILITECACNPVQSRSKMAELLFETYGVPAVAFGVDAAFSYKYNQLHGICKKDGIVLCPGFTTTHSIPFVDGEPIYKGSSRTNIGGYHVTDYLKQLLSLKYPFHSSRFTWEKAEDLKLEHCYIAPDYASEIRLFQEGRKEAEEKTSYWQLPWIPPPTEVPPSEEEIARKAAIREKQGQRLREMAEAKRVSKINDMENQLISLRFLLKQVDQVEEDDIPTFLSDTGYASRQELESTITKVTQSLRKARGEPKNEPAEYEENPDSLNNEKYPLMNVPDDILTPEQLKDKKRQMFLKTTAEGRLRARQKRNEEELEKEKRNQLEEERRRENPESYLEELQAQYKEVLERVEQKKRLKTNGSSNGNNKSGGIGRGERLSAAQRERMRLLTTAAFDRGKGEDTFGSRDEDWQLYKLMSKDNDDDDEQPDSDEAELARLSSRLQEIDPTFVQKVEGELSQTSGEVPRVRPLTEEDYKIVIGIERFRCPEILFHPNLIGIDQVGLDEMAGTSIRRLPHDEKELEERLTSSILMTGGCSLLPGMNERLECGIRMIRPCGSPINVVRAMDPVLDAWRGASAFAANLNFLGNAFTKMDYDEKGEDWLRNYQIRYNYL

In the case of “TOE1 fused to the C-terminal fragment of CFP (pSCYCE(R)) (from UniProt Q9SK03 1-449)”, the binding [1] is reported as “binds”.

For “TARGET OF EARLY ACTIVATION TAGGED (EAT) 1 (TOE1), prey fusion in pGADT7 (from UniProt Q9SK03 1-449)”, the binding [2] was “binds” and the binding [3] was “binds”.

B1: LEAFY COTYLEDON 2 (LEC2), prey fusion in pGADT7 (protein, UniProt Q1PFR7 1-363)
chain: MDNFLPFPSSNANSVQELSMDPNNNRSHFTTVPTYDHHQAQPHHFLPPFSYPVEQMAAVMNPQPVYLSECYPQIPVTQTGSEFGSLVGNPCLWQERGGFLDPRMTKMARINRKNAMMRSRNNSSPNSSPSELVDSKRQLMMLNLKNNVQISDKKDSYQQSTFDNKKLRVLCEKELKNSDVGSLGRIVLPKRDAEANLPKLSDKEGIVVQMRDVFSMQSWSFKYKFWSNNKSRMYVLENTGEFVKQNGAEIGDFLTIYEDESKNLYFAMNGNSGKQNEGRENESRERNHYEEAMLDYIPRDEEEASIAMLIGNLNDHYPIPNDLMDLTTDLQHHQATSSSMPPEDHAYVGSSDDQVSFNDFEWW
With B1 the binding [2] was “no binding” and the binding [3] was “no binding”.

B2: ABA … 3 (ABI3), prey fusion in pGADT7 (protein, UniProt Q01593 1-720)
chain: MKSLHVAANAGDLAEDCGILGGDADDTVLMDGIDEVGREIWLDDHGGDNNHVHGHQDDDLIVHHDPSIFYGDLPTLPDFPCMSSSSSSSTSPAPVNAIVSSASSSSAASSSTSSAASWAILRSDGEDPTPNQNQYASGNCDDSSGALQSTASMEIPLDSSQGFGCGEGGGDCIDMMETFGYMDLLDSNEFFDTSAIFSQDDDTQNPNLMDQTLERQEDQVVVPMMENNSGGDMQMMNSSLEQDDDLAAVFLEWLKNNKETVSAEDLRKVKIKKATIESAARRLGGGKEAMKQLLKLILEWVQTNHLQRRRTTTTTTNLSYQQSFQQDPFQNPNPNNNNLIPPSDQTCFSPSTWVPPPPQQQAFVSDPGFGYMPAPNYPPQPEFLPLLESPPSWPPPPQSGPMPHQQFPMPPTSQYNQFGDPTGFNGYNMNPYQYPYVPAGQMRDQRLLRLCSSATKEARKKRMARQRRFLSHHHRHNNNNNNNNNNQQNQTQIGETCAAVAPQLNPVATTATGGTWMYWPNVPAVPPQLPPVMETQLPTMDRAGSASAMPRQQVVPDRRQGWKPEKNLRFLLQKVLKQSDVGNLGRIVLPKKEAETHLPELEARDGISLAMEDIGTSRVWNMRYRFWPNNKSRMYLLENTGDFVKTNGLQEGDFIVIYSDVKCGKYLIRGVKVRQPSGQKPEAPPSSAATKRQNKSQRNINNNSPSANVVVASPTSQTVK
With B2 the binding [2] was “no binding” and the binding [3] was “no binding”.
